This is one part of the list.
Each target was assayed with c1cn2cc(-c3ccc4cn[nH]c4c3)nc(Nc3ccc(N4CCOCC4)cc3)c2n1 [entospletinib] (assay: log2 fold change, soluble protein after heating vs DMSO (PISA); higher = thermal stabilisation; K562 cells, 10 uM, 30 min; active = over 0.2 and 3.5 SD of the protein, either way, in both replicates (recomputed)).
Summary of the method: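 K562 cells at 2×10^6 cells/mL were treated with 10 μM compound for 30 min. Aliquots were heated for 3 min across 48°C-58°C, pooled, and extracted in PBS with 0.5% NP-40 at 4°C; soluble protein was the supernatant after 21,000xg for 90 min. Soluble protein was quantified by TMTpro 16plex LC-MS/MS with channel sums equalised, and reported as log2 fold change in thermal stability against DMSO controls, with values from duplicates.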

Amino acid sequences for entries named in this document (tags omitted). A change or cut given only in a name is not applied to a line headed by its entry.
UniProt O43353, whole entry, looked up: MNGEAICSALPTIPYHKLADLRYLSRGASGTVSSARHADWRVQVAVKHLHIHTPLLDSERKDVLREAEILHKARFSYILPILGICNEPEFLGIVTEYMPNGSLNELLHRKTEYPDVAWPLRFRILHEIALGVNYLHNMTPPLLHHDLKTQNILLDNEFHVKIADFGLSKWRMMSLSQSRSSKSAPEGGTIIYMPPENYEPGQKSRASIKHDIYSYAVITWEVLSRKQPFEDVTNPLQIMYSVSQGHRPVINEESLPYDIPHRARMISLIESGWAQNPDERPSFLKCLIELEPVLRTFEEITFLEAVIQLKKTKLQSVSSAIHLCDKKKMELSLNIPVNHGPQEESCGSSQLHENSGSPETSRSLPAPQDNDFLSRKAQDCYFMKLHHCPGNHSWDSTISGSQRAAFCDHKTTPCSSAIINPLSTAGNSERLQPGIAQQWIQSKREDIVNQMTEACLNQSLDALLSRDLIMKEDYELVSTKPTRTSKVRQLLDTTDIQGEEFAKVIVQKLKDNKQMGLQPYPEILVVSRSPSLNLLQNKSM
UniProt P84095: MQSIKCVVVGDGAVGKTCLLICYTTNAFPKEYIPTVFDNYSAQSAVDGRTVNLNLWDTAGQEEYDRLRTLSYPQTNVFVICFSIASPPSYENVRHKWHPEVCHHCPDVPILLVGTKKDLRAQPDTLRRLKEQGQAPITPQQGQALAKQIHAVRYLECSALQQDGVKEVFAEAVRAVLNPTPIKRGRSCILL
UniProt Q9H920: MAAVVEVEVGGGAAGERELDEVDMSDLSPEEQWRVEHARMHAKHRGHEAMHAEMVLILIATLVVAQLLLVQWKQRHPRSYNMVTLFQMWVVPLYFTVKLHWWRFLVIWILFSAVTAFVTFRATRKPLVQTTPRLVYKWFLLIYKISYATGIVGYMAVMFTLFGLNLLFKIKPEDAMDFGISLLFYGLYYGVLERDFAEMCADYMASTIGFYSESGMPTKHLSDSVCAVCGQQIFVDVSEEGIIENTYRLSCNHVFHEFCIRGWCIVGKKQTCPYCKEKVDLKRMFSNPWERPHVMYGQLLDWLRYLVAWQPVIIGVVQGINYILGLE
UniProt Q8NC44: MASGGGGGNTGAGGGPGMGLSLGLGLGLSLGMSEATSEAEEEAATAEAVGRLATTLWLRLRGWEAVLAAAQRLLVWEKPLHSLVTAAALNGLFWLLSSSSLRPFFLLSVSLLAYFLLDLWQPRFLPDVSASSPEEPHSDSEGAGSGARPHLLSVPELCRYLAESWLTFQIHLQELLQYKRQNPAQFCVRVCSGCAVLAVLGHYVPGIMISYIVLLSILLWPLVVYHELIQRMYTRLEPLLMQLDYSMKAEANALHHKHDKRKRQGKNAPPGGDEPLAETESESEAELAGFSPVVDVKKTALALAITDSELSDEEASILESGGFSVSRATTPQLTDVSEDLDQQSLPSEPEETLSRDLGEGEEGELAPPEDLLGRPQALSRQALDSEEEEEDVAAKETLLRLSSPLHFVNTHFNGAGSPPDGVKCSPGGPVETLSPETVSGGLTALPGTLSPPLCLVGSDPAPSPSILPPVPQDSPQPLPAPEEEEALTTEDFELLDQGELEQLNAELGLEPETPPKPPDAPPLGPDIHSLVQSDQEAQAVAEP
UniProt Q15293: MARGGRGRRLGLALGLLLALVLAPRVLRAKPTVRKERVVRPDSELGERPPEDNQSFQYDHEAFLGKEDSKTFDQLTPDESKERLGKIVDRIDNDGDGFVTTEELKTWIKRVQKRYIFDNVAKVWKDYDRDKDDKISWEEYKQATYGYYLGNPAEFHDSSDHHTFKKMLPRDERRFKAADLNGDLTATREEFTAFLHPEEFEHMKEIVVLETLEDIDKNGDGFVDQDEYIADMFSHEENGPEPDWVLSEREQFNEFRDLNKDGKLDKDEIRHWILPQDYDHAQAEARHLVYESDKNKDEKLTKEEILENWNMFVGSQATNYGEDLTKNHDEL
UniProt Q86XS8: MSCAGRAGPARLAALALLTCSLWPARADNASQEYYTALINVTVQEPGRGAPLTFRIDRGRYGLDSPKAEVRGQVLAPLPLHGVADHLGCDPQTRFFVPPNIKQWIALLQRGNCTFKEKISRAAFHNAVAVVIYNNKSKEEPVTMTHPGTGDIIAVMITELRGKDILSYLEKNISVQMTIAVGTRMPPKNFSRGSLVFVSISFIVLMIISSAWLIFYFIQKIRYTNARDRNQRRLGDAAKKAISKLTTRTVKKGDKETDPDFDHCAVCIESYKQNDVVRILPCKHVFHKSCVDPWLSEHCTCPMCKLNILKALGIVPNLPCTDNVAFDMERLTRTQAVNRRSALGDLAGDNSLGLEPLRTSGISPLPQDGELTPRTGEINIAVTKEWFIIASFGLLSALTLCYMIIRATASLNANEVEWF

log2 fold change, inactive:
RIPK2 (UniProt O43353) -0.088
RHOG (UniProt P84095) -0.053
RNF121 (UniProt Q9H920) -0.002
RETREG2 (UniProt Q8NC44) -0.036
RCN1 (UniProt Q15293) 0.043
RNF130 (UniProt Q86XS8) -0.28
